Measured values as given in PubChem BioAssay AID493014 (National Center for Advancing Translational Sciences (NCATS), 2011).
The list shows a part of the results. Further columns of the screen follow, without active or inactive calls. The list favours compounds with an active or inconclusive main result. The note in brackets gives the kind of curve behind each potency; many fits are weak.

Assay: qHTS Assay to Find Inhibitors of Chronic Active B-Cell Receptor Signaling
Conditions: ABC-DLBCL IkBa-CBG/CBR reporter, luminescence ratio (green luciferase fused to IkBa over red control in TMD8 lymphoma cells), 4 h
Method in brief: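 TMD8 ABC-DLBCL cells carrying doxycycline-inducible green luciferase fused to IkappaBalpha plus unfused red luciferase were exposed to compounds (up to 46 uM) for 4 hrs at 37C. Activity came from the overlap-corrected green/red luminescence ratio.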

[1] = measured here: CBR red luminescence, cell number
[2] = measured here: IkBa-CBG green luminescence

SMILES | AC50 [1] | AC50 [2]
CCOC(=O)c1c(C)n(-c2ccc(C)cc2)c2ccc(O)c(CN(C)C)c12 | 25.1 µM [falling, single point] | –
COC(=O)CCCCCN1C(=O)NC(c2ccccc2)C(C(=O)OCc2ccccc2)=C1C (stereo unspecified) | 23.1 µM [falling, single point] | –
CCOC(=O)Cn1c(S(=O)(=O)Cc2ccccc2Cl)nc(-c2ccccc2)c1-c1ccccc1 | 9.2 µM [falling, partial curve] | –
C=CCNC(=O)NC(=O)COC(=O)c1cccnc1SC | 14.6 µM [rising, partial curve, poor fit] | –
COc1cccc2cc(-c3nc4ccc(C)cc4[nH]3)c(=O)oc12 | 2.82 µM [falling, partial curve] | –
O=C(NC(=S)N1CCCCC1)c1cccs1 | 25.9 µM [rising, single point] | –
Cc1c(C#N)c(N)c(C(=O)c2ccccc2)n1Cc1ccccc1 | 29.1 µM [rising, single point] | –
O=C(N/N=C\C=C\c1ccco1)c1cc(-c2ccc3ccccc3c2)n[nH]1 | 0.517 µM [rising, full curve, poor fit] | –
CC(C)CNC(=S)NC(=O)c1csc([N+](=O)[O-])c1 | 35.5 µM [rising, single point] | –
COc1ccc(-c2cc(C(=O)N(C)Cc3cccc(OC)c3OC)c3ccccc3n2)cc1OC | – | 0.631 µM [falling, partial curve, poor fit]
CCCn1c(-c2ccc(OC)cc2)nc2ccccc21 | 10 µM [falling, partial curve] | –
CC(C)(O)C(=O)N=Nc1c(O)[nH]c2ccccc12 | 35.5 µM [falling, single point] | –
Clc1cccc(Cl)c1C1=NOC(c2nnc(-c3ccccc3)o2)C1 (stereo unspecified) | 5.62 µM [rising, single point] | –
CS/C(=C\[N+](=O)[O-])Nc1ccc(Cl)cc1 | 4.61 µM [falling, full curve, poor fit] | –
Cn1c(SCC(=O)Nc2ccccc2)nc2c([nH]c3ccccc32)c1=O | 1.12 µM [falling, partial curve, poor fit] | –
Cc1[nH]c(=O)[nH]c(=O)c1NC(=O)c1sc2nc3c(C)cccc3cc2c1N | 14.6 µM [falling, partial curve, poor fit] | 0.92 µM [rising, full curve, poor fit]
CCOc1cc(/C=N/NC(=O)c2cccs2)cc([N+](=O)[O-])c1O | 3.55 µM [falling, full curve, poor fit] | –
c1ccc(-c2cc3cc4c(cc3cn2)OCO4)cc1 | 29.1 µM [falling, single point] | –
COc1cccc(N/C=C/C(=O)c2ccc(Cl)cc2)c1 | 16.4 µM [falling, partial curve] | –
O=C1N/C(=C/c2ccc(Br)s2)C(=O)N1c1ccccc1 | 11.2 µM [falling, partial curve] | –

SMILES | AC50 [1] | AC50 [2]
O=S(=O)(c1ccccc1Cl)N1CCCC1c1nc(-c2ccc(Cl)cc2)no1 (stereo unspecified) | 16.4 µM [falling, partial curve, poor fit] | –
CCCCCCc1cc2cc(-c3nnc(-c4ccccc4OC)o3)c(=O)oc2cc1O | 11.6 µM [falling, partial curve, poor fit] | –
CC1Cc2ccccc2N1C(=O)CSC1=NCCS1 (stereo unspecified) | 3.98 µM [rising, full curve, poor fit] | –
COc1ccc(OC)c(NC(=O)c2cc3c(Cl)nc4ccccc4c3s2)c1 | 1.3 µM [falling, full curve, poor fit] | –
C[C@H](CCC(=O)O)[C@H]1CC[C@H]2[C@@H]3[C@H](O)C[C@@H]4C[C@H](O)CC[C@]4(C)[C@H]3CC[C@]12C | 25.9 µM [falling, single point] | –
COc1ccc2[nH]c(=O)c(CN(Cc3nnnn3Cc3ccccc3)CC3CCCO3)cc2c1 (stereo unspecified) | 2.24 µM [rising, partial curve, poor fit] | –
COc1ccc2[nH]c3c(c2c1)CCN1C(=O)C(CC(=O)NCc2cccc(C(F)(F)F)c2)C[C@H](C(=O)N2CCCCC2)[C@@]31CCc1ccccc1 (stereo partly specified) | 29.1 µM [rising, single point] | –
Cc1ccc(NC2CCCN(C(=O)CN3C(=O)c4ccccc4C3=O)C2)cc1C (stereo unspecified) | 35.5 µM [rising, single point] | –
CCOc1cc2c3c(c1)C1(Nc4ccccc4S1)C(=O)N3C(C)(C)CC2C (stereo unspecified) | 0.058 µM [falling, full curve, poor fit] | –
NNC(=O)COc1ccccc1F | 18.4 µM [rising, partial curve, poor fit] | –
C/C(=N\NC(=O)C(C)n1nc(C)c([N+](=O)[O-])c1C)c1ccccc1O (stereo unspecified) | – | 9.2 µM [falling, partial curve]
COc1ccc2nc(Nc3ccc4c(c3)OCO4)sc2c1 | 11.6 µM [falling, partial curve] | –
Fc1ccc(-c2nnn3c2nc(NCc2ccccc2)c2ccccc23)cc1 | 7.08 µM [falling, partial curve, poor fit] | –
COc1cccc(Nc2ccc(C(=O)O)cc2N)c1 | 0.631 µM [falling, full curve] | –
COc1ccc(C2=NC(C(F)(F)F)(C(F)(F)F)c3c(n(C)c(=O)n(C)c3=O)N2)cc1 | 0.0891 µM [rising, full curve, poor fit] | –
Cc1ccccc1N(CC(=O)Nc1ccccc1C(=O)O)S(C)(=O)=O | 7.08 µM [falling, partial curve, poor fit] | –
S=c1[nH]c2cc3ccccc3cc2[nH]1 | 5.62 µM [falling, partial curve] | –
CN1CCN(C(=O)CN(Cc2ccccc2)S(C)(=O)=O)CC1 | 29.1 µM [falling, single point] | –
O=C(CCCCl)NC(=S)Nc1ccc(N2CCOCC2)cc1 | 3.16 µM [rising, partial curve, poor fit] | –
Cc1ccc2[nH]c(=O)c(CN(CCN3CCOCC3)C(=O)Nc3ccccc3F)cc2c1 | 5.17 µM [rising, full curve, poor fit] | –

One compound at a time, as listed above.
Cc1[nH]c(=O)[nH]c(=O)c1NC(=O)c1sc2nc3c(C)cccc3cc2c1N in the list: AC50 [1]: 14.6 µM [falling, partial curve, poor fit]; AC50 [2]: 0.92 µM [rising, full curve, poor fit]
COc1cccc(N/C=C/C(=O)c2ccc(Cl)cc2)c1 in the list: AC50 [1]: 16.4 µM [falling, partial curve]
CCOC(=O)Cn1c(S(=O)(=O)Cc2ccccc2Cl)nc(-c2ccccc2)c1-c1ccccc1 in the list: AC50 [1]: 9.2 µM [falling, partial curve]
